No constants are given. Whether binding was seen depends on the method and setting. Binding seen in cells or lysates may run through a third protein.
Target: GPR27 fused with the C-terminal part of the firefly luciferase (human) (UniProt Q9NS67)
Assay: split reporter

Chains of the proteins cited; added tags and fusions are not shown.
UniProt Q9NS67: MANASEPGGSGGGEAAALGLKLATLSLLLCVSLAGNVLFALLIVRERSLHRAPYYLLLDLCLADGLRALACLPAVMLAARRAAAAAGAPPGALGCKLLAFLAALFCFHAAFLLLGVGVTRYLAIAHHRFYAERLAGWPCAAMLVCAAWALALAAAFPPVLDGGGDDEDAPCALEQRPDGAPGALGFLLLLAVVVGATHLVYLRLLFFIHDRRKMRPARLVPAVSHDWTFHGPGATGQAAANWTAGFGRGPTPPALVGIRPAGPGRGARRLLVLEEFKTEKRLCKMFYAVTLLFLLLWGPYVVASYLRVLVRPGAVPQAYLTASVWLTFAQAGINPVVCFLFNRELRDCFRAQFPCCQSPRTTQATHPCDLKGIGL
UniProt P29067: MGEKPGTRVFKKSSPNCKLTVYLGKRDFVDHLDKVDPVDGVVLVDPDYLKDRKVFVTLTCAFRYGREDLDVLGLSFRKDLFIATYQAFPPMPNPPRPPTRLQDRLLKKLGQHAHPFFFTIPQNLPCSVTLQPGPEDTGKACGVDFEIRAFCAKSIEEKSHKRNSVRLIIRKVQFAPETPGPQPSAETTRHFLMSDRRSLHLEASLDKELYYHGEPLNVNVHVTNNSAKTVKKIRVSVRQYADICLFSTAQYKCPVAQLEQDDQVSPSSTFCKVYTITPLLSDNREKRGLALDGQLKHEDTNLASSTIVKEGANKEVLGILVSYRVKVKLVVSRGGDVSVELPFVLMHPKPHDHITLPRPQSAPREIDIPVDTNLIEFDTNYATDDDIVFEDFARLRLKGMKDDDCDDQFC

“β-arrestin 2 fused with the N-terminal part of the firefly luciferase (from UniProt P29067 1-410)” was tested, and the binding was “no binding”.
